# This is one part of the list. Further columns of the screen follow, without active or inactive calls. Compounds called inactive in the main read-out are mostly missing here. Potencies come from curve fits of mixed quality, noted in brackets.
# Assay: qHTS Assay for Lipid Storage Modulators in Drosophila S3 Cells;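 as to cell number change: cells counted by Cell Tracker Red CMTPX staining in the red channel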
# Settings: BODIPY lipid droplet fluorescence, 18-24 h; for cell number change: measured here: cell count max response, cells fed with added oleic acid
# Procedure, shortened: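 Laser-scanning cytometry quantifies lipid droplet accumulation (500–530 nm total intensity; droplet/cell object ratio) in oleic acid-fed (400 uM added) Drosophila S3 cells treated with a concentration series. 20 uM Triacsin C defined 100% inhibition.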
# [1] = measured here: cell number channel AC50, cells fed with added oleic acid
# [2] = measured here: lipid fluorescence (Fed channel) AC50, cells fed with added oleic acid
SMILES,cell number change [%],AC50 [1],AC50 [2]
CCC(C)(C(=O)NC1CCCC1)N(C(=O)c1ccccn1)c1ccc(C)cc1 (stereo not given),-1.03,"1.64 µM [falling, partial curve, poor fit]","4.11 µM [falling, single point]"
CCOC(=O)c1nnn(-c2nc(OC)nc(N3CCCC3)n2)c1-c1ccccc1,17.2,"0.82 µM [rising, full curve, poor fit]","1.84 µM [rising, full curve]"
S=C(NCCCN1CCOCC1)N1CCN(c2cccc(Cl)c2)CC1,5.26,–,–
CCOC(=O)c1c(C)n(C)c2ccc(OCC(O)CN3CCN(C)CC3)cc12 (stereo not given),–,–,"6.51 µM [rising, single point]"
Cc1ccc(C2CC(C(F)(F)F)n3nc(C(=O)NCc4c(C)nn(C)c4C)c(Cl)c3N2)cc1 (stereo not given),-20.8,–,–
O=C1OC(Nc2ccc(F)cc2F)c2ccccc21 (stereo not given),-11.9,–,–
Nc1cccc(-c2cn3cc(C(F)(F)F)cc(Cl)c3n2)c1,–,"1.03 µM [rising, full curve]","2.91 µM [rising, single point]"
Nc1c(C(=O)Nc2ccc3c(c2)OCCO3)nnn1Cc1ccc(Br)cc1,100,"5.8 µM [rising, partial curve]",–
O=C(COC(=O)c1ccc(Oc2ccccc2)cc1)Nc1nnc(-c2ccccc2)o1,-5.69,–,"16.4 µM [rising, partial curve]"
O=c1ccc(S(=O)(=O)N2CCCC2)cn1Cc1ccc(Cl)cc1Cl,3.06,–,"2.91 µM [falling, single point]"
COc1cccc(N(C(=O)c2ccco2)C(C(=O)NC2CCCC2)c2ccc(N3CCOCC3)cc2)c1 (stereo not given),-5.13,–,"5.17 µM [rising, single point]"
CCn1c(=O)c(C(=O)CN2CCOCC2)c(N)n(Cc2ccccc2)c1=O,7.33,–,"0.731 µM [rising, single point]"
Cc1ccc(Cl)cc1N(C)C(=O)Cn1ncc2c([nH]c3ccccc32)c1=O,–,–,"29.1 µM [falling, single point]"
c1ccc(-n2ncc3c(N4CCN(c5ccccn5)CC4)nc(N4CCCCC4)nc32)cc1,-9.86,–,"23.1 µM [rising, single point]"
COCCn1c(SCC(=O)NCC2CCCO2)nc2c(c1=O)SCC2 (stereo not given),-31,"23.1 µM [falling, single point]","2.91 µM [falling, full curve, poor fit]"
Cc1cccc(OCC(O)CN2CC3(C)CC2CC(C)(C)C3)c1 (stereo not given),-30.9,"32.6 µM [falling, single point]","32.6 µM [falling, single point]"
COc1ccccc1CN1C(=O)[C@@H]2C(CCC(N)=O)NC3(C(=O)Nc4c3ccc(Cl)c4C)[C@@H]2C1=O (stereo not given in full),30.4,"2.59 µM [rising, partial curve]","8.2 µM [rising, partial curve]"
O=C(CC(Nc1ccccc1Cl)C(=O)O)c1ccccc1 (stereo not given),-5.51,–,–
CC(=O)Nc1nonc1NC(=O)CSC1=NCCS1,11.4,–,"0.92 µM [rising, full curve, poor fit]"
Cc1cccc(C)c1NC(=O)CSCc1cccc(CSCC(=O)Nc2c(C)cccc2C)n1,3.91,–,"6.51 µM [falling, single point]"

SMILES,cell number change [%],AC50 [1],AC50 [2]
CCN1CCN(c2ccc(NC(=O)c3ccc4c(c3)OCCO4)cc2C)CC1,-9,–,–
CC1=CC(C)(C)N(S(=O)(=O)c2ccc(C)cc2)c2ccccc21,7.62,–,"0.116 µM [rising, full curve]"
Cn1c(=O)c2ccccc2n2c(CCl)nnc12,10.5,–,–
CCC(=O)Nc1ccc(C(=O)NNC(=O)C(c2ccccc2)c2ccccc2)cc1,-34.8,"14.6 µM [falling, single point]","29.1 µM [falling, single point]"
Cn1c(SCC(=O)Nc2nccs2)nnc1-c1ccc(S(=O)(=O)N2CCCC2)cc1,35.5,"6.51 µM [rising, full curve, poor fit]","14.6 µM [falling, partial curve, poor fit]"
Fc1ccc(SCCc2ccccn2)cc1,18,–,"0.82 µM [rising, full curve, poor fit]"
CCOc1ccc(S(=O)(=O)NCCC(=O)NCC2(N3CCCCC3)CCCCC2)cc1,-24.8,–,–
C=CCOC(=O)Cn1cnc2c(sc3nc(C)cc(C)c32)c1=O,-26.3,–,–
Cc1ccc(NC(=O)CSc2nccn2C)cc1F,7.57,–,–
CC1=C(C(=O)Nc2ccccc2)C(c2ccncc2)C(C#N)=C(SCC(=O)Nc2ccccc2)N1 (stereo not given),62.1,"0.0103 µM [rising, full curve, poor fit]",–
CCN(C1CCCCC1)S(=O)(=O)c1ccc(C(=O)O)cc1,-98.8,"29.1 µM [falling, single point]",–
CCCOc1ccc(C(=O)NC(C)C(=O)O)cc1 (stereo not given),40.9,"14.6 µM [rising, partial curve, poor fit]",–
COc1ccccc1-c1nnc2sc(COc3ccc(Cl)cc3Cl)nn12,1.3,–,"2.59 µM [rising, single point]"
COc1ccc(C2c3c4c(n(C)c3CCN2C)CCN(C)C4c2ccc(OC)cc2)cc1 (stereo not given),17.5,–,"4.11 µM [falling, single point]"
COc1ccnc(N=CNOCc2cccc(Cl)c2Cl)c1C#N,80.8,–,"1.64 µM [rising, full curve]"
COc1cc(C(=O)OCC(=O)NCCN2C(=O)CSC2=O)ccc1OCc1c(C)noc1C,-20.4,–,"0.58 µM [falling, single point]"
COCCN(C(=O)CSc1nc2ccccc2c(=O)n1CC(C)C)c1c(N)n(Cc2ccccc2)c(=O)[nH]c1=O,-29.8,–,"29.1 µM [falling, single point]"
CN(Cc1ccco1)C(=O)C1CCN(c2nnc(-n3cccc3)s2)CC1,–,–,"3.26 µM [rising, partial curve]"
CC(C)CNS(=O)(=O)c1ccc(CCC(=O)NC2CCCC2)cc1,46.5,–,"16.4 µM [rising, partial curve]"
O=C(O)c1ccc(OC2CSC2)cc1,10.2,–,"0.082 µM [falling, full curve, poor fit]"

SMILES,cell number change [%],AC50 [1],AC50 [2]
CC(C)=CC(=O)Nc1ccccc1C(N)=O,0.963,"0.0517 µM [falling, partial curve, poor fit]",–
CCOC(=O)c1[nH]c(C)c(C(=O)OCc2ccc(C)cc2)c1C,-12.4,–,"6.51 µM [rising, partial curve]"
O=C(CSc1ccccc1)Nc1ccccc1C(=O)N1CCCC1,7.28,–,–
CCOc1ccc(NC(=O)CCN2C(=O)c3ccccc3C2=O)cc1,38.5,"29.1 µM [rising, single point]","6.51 µM [rising, partial curve, poor fit]"
CC(=O)c1ccc(NC(=S)NCC(c2ccco2)N2CCCC2)cc1 (stereo not given),51.9,"6.51 µM [rising, full curve]",–
O=C(c1ccc2c(c1)N(Cc1ccc(F)cc1)C(=O)c1ccccc1S2(=O)=O)N1CCN(c2ccccn2)CC1,18.8,–,"1.46 µM [falling, partial curve]"
CCCC1=C(C(=O)OCC)C(c2cccs2)C(C#N)=C(N)O1 (stereo not given),-29.4,–,"23.1 µM [falling, single point]"
Cc1c(O)ccc(/C=N/Nc2nc(-c3cccnc3)nc3ccccc23)c1O,-52.2,"16.4 µM [falling, single point]","16.4 µM [falling, partial curve]"
CCc1cccc(NS(=O)(=O)c2ccc3c(c2)N(C)CCO3)c1,-36.6,"4.11 µM [falling, partial curve]",–
Cc1cccc(C)c1N(C(=O)c1ccco1)C(C(=O)NC1CCCC1)c1ccncc1 (stereo not given),-3.17,–,"29.1 µM [rising, single point]"
COc1ccc(N(CC(=O)N2CCc3ccccc3C2)S(C)(=O)=O)cc1Cl,0.794,–,"0.206 µM [rising, full curve]"
Cc1ccc(N2CC(=O)N(NC(=O)c3sc4nc(C)cc(C)c4c3N)CC2=O)cc1,–,–,"3.66 µM [rising, single point]"
Cc1cc(C(=O)NNC(=O)C2CCCC2)c(C)o1,-2.69,"6.51 µM [rising, single point]","6.51 µM [rising, single point]"
O=C(NNc1cc(N2CCOCC2)nc(N2CCOCC2)n1)c1ccc(Cl)c(Cl)c1,64,"29.1 µM [rising, single point]","0.291 µM [rising, full curve, poor fit]"
O=C1c2cccnc2C(=O)N1Cc1ccc(S(=O)(=O)N2CCOc3ccc(Cl)cc32)cc1,18.9,–,"29.1 µM [rising, partial curve]"
CN(C)C(=O)c1ccccc1Sc1ccc(Cl)cc1Cl,–,"0.058 µM [falling, full curve, poor fit]","0.411 µM [rising, full curve, poor fit]"
O=C(Nc1ccccc1)Nc1nnc(CSCc2ccccc2Cl)s1,-33.5,"14.6 µM [falling, single point]","13 µM [falling, single point]"
Cc1ccc(NS(=O)(=O)c2ccc(C(=O)NCC3CCCO3)cc2)cc1 (stereo not given),53.8,"2.91 µM [rising, partial curve]","1.64 µM [rising, partial curve]"

# A draw from above in order of SMILES length, smallest number first.
SMILES,cell number change [%],AC50 [1],AC50 [2]
CCOc1ccc(NC(=O)CCN2C(=O)c3ccccc3C2=O)cc1,38.5,"29.1 µM [rising, single point]","6.51 µM [rising, partial curve, poor fit]"
CCOC(=O)c1[nH]c(C)c(C(=O)OCc2ccc(C)cc2)c1C,-12.4,–,"6.51 µM [rising, partial curve]"
Cc1ccc(N2CC(=O)N(NC(=O)c3sc4nc(C)cc(C)c4c3N)CC2=O)cc1,–,–,"3.66 µM [rising, single point]"
O=C1c2cccnc2C(=O)N1Cc1ccc(S(=O)(=O)N2CCOc3ccc(Cl)cc32)cc1,18.9,–,"29.1 µM [rising, partial curve]"

# From PubChem BioAssay AID2685 (National Center for Advancing Translational Sciences (NCATS), 2010)
